Results on four molecules are retold here after publication doi:10.1101/2023.03.23.533910 (bioRxiv, 2023).

These are yes or no findings as the source states them, for the method shown. Binding seen in cells or lysates may run through a third protein. A result given as binding can be weak or reduced; the word gives no strength. Tags and fused reporters may be left off the sequences shown.

In experiment [1] the target is T1, SNC1-GFP (Arabidopsis thaliana) (UniProt O23530).
T1 sequence: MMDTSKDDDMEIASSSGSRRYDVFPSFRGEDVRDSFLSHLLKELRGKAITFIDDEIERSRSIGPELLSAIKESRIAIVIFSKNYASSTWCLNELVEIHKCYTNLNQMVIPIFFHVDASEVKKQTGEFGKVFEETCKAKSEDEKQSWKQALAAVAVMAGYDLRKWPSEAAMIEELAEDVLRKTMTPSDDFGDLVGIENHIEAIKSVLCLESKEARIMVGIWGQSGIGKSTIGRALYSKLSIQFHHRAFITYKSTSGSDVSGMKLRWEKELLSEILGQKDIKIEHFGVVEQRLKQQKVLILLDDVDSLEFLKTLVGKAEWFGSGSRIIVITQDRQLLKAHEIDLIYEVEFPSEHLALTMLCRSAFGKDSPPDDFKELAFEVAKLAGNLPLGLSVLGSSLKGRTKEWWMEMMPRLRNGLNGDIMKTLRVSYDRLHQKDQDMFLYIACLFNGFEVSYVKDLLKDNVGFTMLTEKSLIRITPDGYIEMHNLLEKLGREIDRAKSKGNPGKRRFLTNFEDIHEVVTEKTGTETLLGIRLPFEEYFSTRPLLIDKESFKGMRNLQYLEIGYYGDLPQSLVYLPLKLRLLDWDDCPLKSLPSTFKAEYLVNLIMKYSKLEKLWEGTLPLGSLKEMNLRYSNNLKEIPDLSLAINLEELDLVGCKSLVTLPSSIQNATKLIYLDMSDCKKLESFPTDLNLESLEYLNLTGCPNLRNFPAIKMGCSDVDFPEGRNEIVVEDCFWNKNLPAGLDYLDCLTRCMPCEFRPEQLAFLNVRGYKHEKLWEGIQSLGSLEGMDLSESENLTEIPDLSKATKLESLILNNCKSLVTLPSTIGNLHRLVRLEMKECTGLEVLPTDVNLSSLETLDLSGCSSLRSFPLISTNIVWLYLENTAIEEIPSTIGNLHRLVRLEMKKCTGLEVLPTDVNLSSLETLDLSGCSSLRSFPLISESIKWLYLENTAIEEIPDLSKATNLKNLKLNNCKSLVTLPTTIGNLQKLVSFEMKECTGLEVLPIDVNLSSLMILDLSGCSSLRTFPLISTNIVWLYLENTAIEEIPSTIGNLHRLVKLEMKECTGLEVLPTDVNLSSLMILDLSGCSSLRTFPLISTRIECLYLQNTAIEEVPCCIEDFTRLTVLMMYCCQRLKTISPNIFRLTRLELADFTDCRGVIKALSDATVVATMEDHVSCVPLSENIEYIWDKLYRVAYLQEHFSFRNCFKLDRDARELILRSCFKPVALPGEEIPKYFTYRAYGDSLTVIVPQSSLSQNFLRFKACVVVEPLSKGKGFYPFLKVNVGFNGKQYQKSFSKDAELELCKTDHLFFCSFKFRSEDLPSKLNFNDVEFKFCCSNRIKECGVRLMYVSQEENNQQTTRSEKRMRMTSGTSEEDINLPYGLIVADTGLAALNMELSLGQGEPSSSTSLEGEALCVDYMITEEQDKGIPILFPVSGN
As to the kind of experiment: pull-down.

In experiment [2] the target is ADR1-L2-FLAG (Arabidopsis thaliana). Put plainly: co-IP.
Experiment [3] addresses ADR1-L1-FLAG (Arabidopsis thaliana). Put plainly: co-IP.
For experiment [4], the target named is ADR1-L1-GFP (Arabidopsis thaliana). As to the kind of experiment: co-IP.

In the case of “MBP-tagged CCR domain of ADR1 (Arabidopsis thaliana) (domain or fragment)”, the binding entry in experiment [1] is on record as “binds”.

Regarding “MBP-tagged CCR domain of ADR1-L2 (Arabidopsis thaliana) (domain or fragment)”, in experiment [1], the binding result is reported as “binds”.

Turning to “MBP-tagged CCR domain of ADR1-L1 (Arabidopsis thaliana) (domain or fragment)”, in experiment [1], the binding entry is listed as “binds”.

B1: 3xHA-tagged SNC1 (natural protein, Arabidopsis thaliana, UniProt O23530 1-1437, looked up)
chain: MMDTSKDDDMEIASSSGSRRYDVFPSFRGEDVRDSFLSHLLKELRGKAITFIDDEIERSRSIGPELLSAIKESRIAIVIFSKNYASSTWCLNELVEIHKCYTNLNQMVIPIFFHVDASEVKKQTGEFGKVFEETCKAKSEDEKQSWKQALAAVAVMAGYDLRKWPSEAAMIEELAEDVLRKTMTPSDDFGDLVGIENHIEAIKSVLCLESKEARIMVGIWGQSGIGKSTIGRALYSKLSIQFHHRAFITYKSTSGSDVSGMKLRWEKELLSEILGQKDIKIEHFGVVEQRLKQQKVLILLDDVDSLEFLKTLVGKAEWFGSGSRIIVITQDRQLLKAHEIDLIYEVEFPSEHLALTMLCRSAFGKDSPPDDFKELAFEVAKLAGNLPLGLSVLGSSLKGRTKEWWMEMMPRLRNGLNGDIMKTLRVSYDRLHQKDQDMFLYIACLFNGFEVSYVKDLLKDNVGFTMLTEKSLIRITPDGYIEMHNLLEKLGREIDRAKSKGNPGKRRFLTNFEDIHEVVTEKTGTETLLGIRLPFEEYFSTRPLLIDKESFKGMRNLQYLEIGYYGDLPQSLVYLPLKLRLLDWDDCPLKSLPSTFKAEYLVNLIMKYSKLEKLWEGTLPLGSLKEMNLRYSNNLKEIPDLSLAINLEELDLVGCKSLVTLPSSIQNATKLIYLDMSDCKKLESFPTDLNLESLEYLNLTGCPNLRNFPAIKMGCSDVDFPEGRNEIVVEDCFWNKNLPAGLDYLDCLTRCMPCEFRPEQLAFLNVRGYKHEKLWEGIQSLGSLEGMDLSESENLTEIPDLSKATKLESLILNNCKSLVTLPSTIGNLHRLVRLEMKECTGLEVLPTDVNLSSLETLDLSGCSSLRSFPLISTNIVWLYLENTAIEEIPSTIGNLHRLVRLEMKKCTGLEVLPTDVNLSSLETLDLSGCSSLRSFPLISESIKWLYLENTAIEEIPDLSKATNLKNLKLNNCKSLVTLPTTIGNLQKLVSFEMKECTGLEVLPIDVNLSSLMILDLSGCSSLRTFPLISTNIVWLYLENTAIEEIPSTIGNLHRLVKLEMKECTGLEVLPTDVNLSSLMILDLSGCSSLRTFPLISTRIECLYLQNTAIEEVPCCIEDFTRLTVLMMYCCQRLKTISPNIFRLTRLELADFTDCRGVIKALSDATVVATMEDHVSCVPLSENIEYIWDKLYRVAYLQEHFSFRNCFKLDRDARELILRSCFKPVALPGEEIPKYFTYRAYGDSLTVIVPQSSLSQNFLRFKACVVVEPLSKGKGFYPFLKVNVGFNGKQYQKSFSKDAELELCKTDHLFFCSFKFRSEDLPSKLNFNDVEFKFCCSNRIKECGVRLMYVSQEENNQQTTRSEKRMRMTSGTSEEDINLPYGLIVADTGLAALNMELSLGQGEPSSSTSLEGEALCVDYMITEEQDKGIPILFPVSGN
As to B1, the binding result in experiment [2], in experiment [3] and in experiment [4] was “binds” in each case.
